Source: PMC12752606, “METTL10‐Mediated PIAS3 Methylation Links Purine Metabolism to Gastric Cancer Progression” (Advanced Science, 2025)
Results are given in words; binding and its absence hold for the method and conditions named. Binding seen in cells or lysates may run through a third protein. Here binding means that the protein was enriched with, or labelled near, the bait; the list need not be complete.

Sequences of proteins named here, by UniProt entry; tags and fusion partners are left off. A change or cut given only in a name is not applied to a line headed by its entry. A line that says so, or that is headed by a name, gives the form on record, which may keep a tag or linker.
Flag-METTL10 (Q5JPI9, form named): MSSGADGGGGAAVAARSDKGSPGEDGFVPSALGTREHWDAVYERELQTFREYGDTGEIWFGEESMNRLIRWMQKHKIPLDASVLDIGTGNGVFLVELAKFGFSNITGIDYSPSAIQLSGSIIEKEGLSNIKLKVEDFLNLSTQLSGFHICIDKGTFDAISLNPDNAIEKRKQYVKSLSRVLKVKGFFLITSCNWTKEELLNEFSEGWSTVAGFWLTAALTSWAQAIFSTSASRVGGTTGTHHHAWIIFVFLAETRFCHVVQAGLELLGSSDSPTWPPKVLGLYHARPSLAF

Target: Flag-METTL10 (methyltransferase-like 10) (UniProt Q5JPI9)
Experiment: affinity purification with mass spectrometry; cells transfected with Flag-Vector or Flag-METTL10 (HEK293T by the results, MKN45 by the methods); Flag-M2 magnetic beads, 4 °C overnight; whole gel lanes by LC-MS/MS

binding: binds
B1: PIAS3, endogenous (enzyme, UniProt Q9Y6X2 1-628)
chain: MAELGELKHMVMSFRVSELQVLLGFAGRNKSGRKHELLAKALHLLKSSCAPSVQMKIKELYRRRFPRKTLGPSDLSLLSLPPGTSPVGSPGPLAPIPPTLLAPGTLLGPKREVDMHPPLPQPVHPDVTMKPLPFYEVYGELIRPTTLASTSSQRFEEAHFTFALTPQQVQQILTSREVLPGAKCDYTIQVQLRFCLCETSCPQEDYFPPNLFVKVNGKLCPLPGYLPPTKNGAEPKRPSRPINITPLARLSATVPNTIVVNWSSEFGRNYSLSVYLVRQLTAGTLLQKLRAKGIRNPDHSRALIKEKLTADPDSEVATTSLRVSLMCPLGKMRLTVPCRALTCAHLQSFDAALYLQMNEKKPTWTCPVCDKKAPYESLIIDGLFMEILSSCSDCDEIQFMEDGSWCPMKPKKEASEVCPPPGYGLDGLQYSPVQGGDPSENKKKVEVIDLTIESSSDEEDLPPTKKHCSVTSAAIPALPGSKGVLTSGHQPSSVLRSPAMGTLGGDFLSSLPLHEYPPAFPLGADIQGLDLFSFLQTESQHYGPSVITSLDEQDALGHFFQYRGTPSHFLGPLAPTLGSSHCSATPAPPPGRVSSIVAPGGALREGHGGPLPSGPSLTGCRSDIISLD
